# Test results from the supplement of paper PMC12889115.
# The list shows a part of the results. These are raw signals, not scaled to a control.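 Primary screen: polymyxin B was added at a level permeabilizing Salmonella outer membranes while sparing inner membranes. DMSO wells, both with and without polymyxin B, established maximum growth. Plate-to-plate variation meant each plate was ranked on its own, and the lowest-OD600 compounds were selected as hits.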
# Test system: Salmonella enterica serovar Typhimurium SL1344
# Assay: bacterial growth OD600 after 18 h with compound and polymyxin B; higher = more bacterial growth (less inhibition)
# Conditions: 50 µM, Mueller-Hinton broth
Structure (SMILES),bacterial growth OD600 (polymyxin B 0.75 µg/mL),bacterial growth OD600 (polymyxin B 1 µg/mL)
CSCC(=O)N1CCc2[nH]nc(-c3cccc(F)c3)c2C1,0.626,
CCCN1CCCN(c2ccc(-c3nc(Cc4ccccc4)no3)cn2)CC1,0.657,
O=C(CN1Cc2ccccc2OC(c2ccccc2F)C1)NCCCN1CCOCC1 (stereo unspecified),0.777,
COc1cc(=O)n2c(c1C(=O)NC(C)c1ccco1)CCN(Cc1nc3ccccc3n1C)CC2 (stereo unspecified),0.838,
C=CCCC(=O)NC1CCCN(C2CCN(C)CC2)C1 (stereo unspecified),,1.1
COc1ccccc1CN1CC(C(=O)NCc2cc(F)ccc2C)CCC1=O (stereo unspecified),,0.741
CCC(NC(=O)c1ccccc1OC1CCN(S(C)(=O)=O)CC1)c1ccc(F)cc1 (stereo unspecified),,0.841
O=C([C@@H]1C[C@@H]2C=C[C@H]1C2)N1CCC(C2(c3ccccn3)NC(=O)N(CCc3cccs3)C2=O)CC1 (stereo partly specified),0.906,
COc1cccc(CN(C)Cc2c(C(=O)N3CCCCCC3)nc3cc(C)ccn23)c1,0.003,
CC(c1ccccn1)N(C)C(=O)c1cc(COc2cccc3cnccc23)on1 (stereo unspecified),,1.01
O=C(NC(C1CC1)C1CC1)C1CCC(=O)N(CCCN2CCCC2=O)C1 (stereo unspecified),,0.998
COC(=O)CC(NC1CCN(c2ccc(NC(=O)c3ccc(OC)cc3)cc2)CC1)C(=O)OC (stereo unspecified),0.855,
CN(Cc1ccccc1)C1CCCN(C(=O)CCC(=O)c2ccc(F)cc2)C1 (stereo unspecified),0.827,
c1cnn(CCCNc2nc3nonc3nc2N2CCCCCC2)c1,,0.894
COCC(=O)Nc1cc(C(=O)N(C)Cc2nonc2C)c2c(c1)ncn2Cc1ccc(F)cc1,0.844,
O=C(NC1CCS(=O)(=O)C1)c1ccc2oc(CCCc3ccccc3)nc2c1 (stereo unspecified),,0.942

# Exported tab-delimited: entries from further up.
Structure (SMILES)	bacterial growth OD600 (polymyxin B 0.75 µg/mL)	bacterial growth OD600 (polymyxin B 1 µg/mL)
COc1cccc(CN(C)Cc2c(C(=O)N3CCCCCC3)nc3cc(C)ccn23)c1	0.003	
CC(c1ccccn1)N(C)C(=O)c1cc(COc2cccc3cnccc23)on1 (stereo unspecified)		1.01
O=C(NC(C1CC1)C1CC1)C1CCC(=O)N(CCCN2CCCC2=O)C1 (stereo unspecified)		0.998
COC(=O)CC(NC1CCN(c2ccc(NC(=O)c3ccc(OC)cc3)cc2)CC1)C(=O)OC (stereo unspecified)	0.855	
CN(Cc1ccccc1)C1CCCN(C(=O)CCC(=O)c2ccc(F)cc2)C1 (stereo unspecified)	0.827	

# The list continues:

Structure (SMILES),bacterial growth OD600 (polymyxin B 0.75 µg/mL),bacterial growth OD600 (polymyxin B 1 µg/mL)
Cc1cnc(N2CCC(C3CCN(CC(C)(C)C)C3)CC2)nc1N (stereo unspecified),0.777,
O=C1N(Cc2cccc(F)c2F)CCCC1(O)CN1CCN(CC2CC2)CC1 (stereo unspecified),,0.913
Cc1c(C(C)NCc2cc3c(cc2Cl)OCO3)cnn1-c1ccccc1 (stereo unspecified),,0.992
CCN1CCN(CC(=O)NCc2ccc3[nH]c4c(c3c2)CCCC4)CC1,,0.987
Cc1nn(C)cc1[C@@H]1C[C@H]2CN(Cc3cccc(Cl)c3)C(=O)[C@]23CCCN13,,0.906
COCCC(=O)N1CCC(Oc2ccc(C(=O)N3CCCCC3CCCO)cc2)CC1 (stereo unspecified),,0.998
COc1cccc(CN2CCCC(O)(CN3CCSCC3)C2=O)c1 (stereo unspecified),,0.823
O=C(C1CC1)N1CCC(N2CCCC(C(=O)N3CCc4ccccc4C3)C2)CC1 (stereo unspecified),0.786,
CCN1CC(CN(C)Cc2cn(-c3ccccc3)nc2-c2ccc(OC)cc2F)CC1=O (stereo unspecified),,0.762
Cc1ccc(CC2(CCC(=O)N3CCC(OCc4ccccc4)CC3)CCC(=O)N2)cc1 (stereo unspecified),0.823,
Cc1c(CC(=O)NC2CCC2)c2c(n1CCc1ccccc1)CCCC2=O,,0.57
Cc1n[nH]c(C)c1CN(C)c1nc2nonc2nc1N(C)C,0.792,
NC(=O)N1CCCC(C(=O)NCc2cccnc2Oc2ccccc2)C1 (stereo unspecified),0.979,
O=C(NCC1(O)CCCCC1)c1ccc2nc(Cc3ccccc3F)oc2c1,0.763,
O=C(NCc1cnc2ccccn12)C1CCC(=O)N(CCc2cccc(F)c2)C1 (stereo unspecified),,0.942
